Data source: PubChem BioAssay AID1053208 (Peter MacCallum Cancer Centre, 2014)

Purpose: 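Genes whose silencing cuts survival of bone tumour cells only with doxorubicin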 (primary screen)
Cell system: mouse osteosarcoma cells, early-passage culture from an engineered mouse model of fibroblastic bone tumour
Reagent: siRNA pool against mouse genes, 40 nM
Timing: about 120 h (48 h before drug, then 72 h with drug)
Treatment: doxorubicin 100 nM for 72 h, roughly 30-40% inhibitory dose
Measured: 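Luminescent ATP signal taken as viability with or without 100 nM doxorubicin for 72 h; mean of two wells set against non-targeting siRNA and turned into robust z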
Direction: viability z-score with doxorubicin: higher = more viable cells under doxorubicin; viability z-score without drug: higher = more viable cells with knock-down alone
Active means: 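a pool counts as active when its viability z-score with doxorubicin is -2 or below and its z-score without drug lies between -2 and 2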
The deposit covers about 17,000 reagents; shown is an unselected part. 788 of all reagents (4.7%) were called active. 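Calls rest on z-score classes alone; an extra cut-off of viability at most 70% of control was not applied to them.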 Entries without a mark were called inactive. Not all columns of the deposit are shown.

gene	combined z-score class	viability z-score with doxorubicin	viability z-score without drug
Ticam1 (TIR domain containing adaptor molecule 1)	no change with or without drug	0.22	0.17
Klhdc2 (kelch domain containing 2)	no change with or without drug	0.22	0.84
Clybl (citrate lyase beta like)	no change with or without drug	-0.56	-0.51
Dmrt3 (doublesex and mab-3 related transcription factor 3)	high cell count with doxorubicin only	2.02	1.18
Cdk3 (cyclin dependent kinase 3)	low cell count with doxorubicin only (active)	-2.36	-1.18
A730049H05Rik (RIKEN cDNA A730049H05 gene)	no change with or without drug	-0.22	0.67
Prl8a8 (prolactin family 8, subfamily a, member 81)	no change with or without drug	0.79	1.18
Dph2 (DPH2 homolog)	no change with or without drug	1.12	0.51
S100g (S100 calcium binding protein G)	no change with or without drug	1.69	0.34
Or1j18 (olfactory receptor family 1 subfamily J member 18)	no change with or without drug	0	-1.18
ABCC8	no change with or without drug	0	-0.84
Nup93 (nucleoporin 93)	no change with or without drug	0.79	0
Col14a1 (collagen, type XIV, alpha 1)	no change with or without drug	0.34	0.17
Utrn (utrophin)	no change with or without drug	-0.22	-0.34
Bax (BCL2-associated X protein)	no change with or without drug	0.34	0.51
Adm2 (adrenomedullin 2)	no change with or without drug	-0.22	-0.51
Scarb2 (scavenger receptor class B, member 2)	high cell count without drug only	1.12	2.36
Chpf (chondroitin polymerizing factor)	no change with or without drug	-1.57	0.51
Or4a79 (olfactory receptor family 4 subfamily A member 79)	low cell count with doxorubicin only (active)	-2.02	-1.52
Mindy3 (MINDY lysine 48 deubiquitinase 3)	no change with or without drug	-1.8	0.51
Ccl22 (C-C motif chemokine ligand 22)	no change with or without drug	-0.45	-0.34
Ubtd1 (ubiquitin domain containing 1)	no change with or without drug	-1.57	-0.17
Ap4m1 (adaptor-related protein complex AP-4, mu 1)	no change with or without drug	0.9	1.85
Myl6	no change with or without drug	0.67	-0.17
Pi4k2a (phosphatidylinositol 4-kinase type 2 alpha)	no change with or without drug	0	-1.85
Enkd1 (enkurin domain containing 1)	no change with or without drug	-1.12	1.52
Wrap73 (WD repeat containing, antisense to Trp73)	no change with or without drug	0.45	-0.51
Ggps1 (geranylgeranyl diphosphate synthase 1)	no change with or without drug	0.11	0
Tnfrsf13b (tumor necrosis factor receptor superfamily, member 13b)	high cell count without drug only	-1.12	2.02
Cpne6 (copine VI)	no change with or without drug	1.35	1.52
Abca5 (ATP-binding cassette, sub-family A member 5)	no change with or without drug	1.12	0.67
Ift52 (intraflagellar transport 52)	no change with or without drug	0	-0.67
Uros (uroporphyrinogen III synthase)	no change with or without drug	0.67	-1.18
Drd5 (dopamine receptor D5)	no change with or without drug	-1.12	-1.85
